Assay results taken from the M2OR odorant receptor database.
The list shows a part of the results, in another mix than the full data. Calls are pooled over several reports, among them a noisy single-well screen.

Experiments:
Details in all cases: stereoisomer not certain
OR2AG1 (Homo sapiens) = target: T1, OR2AG1 (Homo sapiens) (UniProt Q9H205)
T1 sequence (whole entry): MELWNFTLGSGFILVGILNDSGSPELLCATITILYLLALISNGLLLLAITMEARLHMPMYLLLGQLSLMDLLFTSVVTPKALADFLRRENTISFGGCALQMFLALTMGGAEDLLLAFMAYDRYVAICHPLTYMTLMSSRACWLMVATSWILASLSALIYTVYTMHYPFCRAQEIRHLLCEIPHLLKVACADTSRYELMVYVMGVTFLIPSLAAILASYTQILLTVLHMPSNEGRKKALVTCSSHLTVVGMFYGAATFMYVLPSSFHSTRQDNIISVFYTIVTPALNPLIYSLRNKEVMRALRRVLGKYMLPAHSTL
How it was run: (§1)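 Whether a receptor–molecule pair is responsive (active) rests on the original authors' judgment that its measured signal was statistically different from baseline. Pairs without that judgment are non-responsive (inactive). Sources used varied assay methods, commonly transient luciferase assays in mammalian cell lines.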

OR2AG2 (Homo sapiens) = target: T2, OR2AG2 (Homo sapiens) (UniProt A6NM03)
T2 sequence (whole entry): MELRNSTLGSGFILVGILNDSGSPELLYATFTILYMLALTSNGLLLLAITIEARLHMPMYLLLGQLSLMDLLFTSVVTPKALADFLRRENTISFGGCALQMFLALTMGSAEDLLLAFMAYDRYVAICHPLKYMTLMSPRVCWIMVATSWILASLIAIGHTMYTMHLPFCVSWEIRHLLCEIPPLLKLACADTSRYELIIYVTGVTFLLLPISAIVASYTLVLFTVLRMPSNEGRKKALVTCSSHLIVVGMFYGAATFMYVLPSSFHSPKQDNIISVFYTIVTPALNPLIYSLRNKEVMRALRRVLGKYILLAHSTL
How it was run: as §1

OR2AP1 (Homo sapiens) = target: T3, OR2AP1 (Homo sapiens) (UniProt Q8NGE2)
T3 sequence (whole entry): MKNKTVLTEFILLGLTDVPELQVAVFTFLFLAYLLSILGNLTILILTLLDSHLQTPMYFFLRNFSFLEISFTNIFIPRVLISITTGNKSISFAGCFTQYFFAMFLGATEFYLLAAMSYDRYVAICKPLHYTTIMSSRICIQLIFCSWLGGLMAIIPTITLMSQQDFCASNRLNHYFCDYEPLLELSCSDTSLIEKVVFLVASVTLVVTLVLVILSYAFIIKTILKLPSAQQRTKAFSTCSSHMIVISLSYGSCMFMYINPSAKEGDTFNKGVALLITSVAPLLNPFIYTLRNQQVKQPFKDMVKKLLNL
How it was run: as §1

OR2AT4 (Homo sapiens) = target: T4, OR2AT4 (Homo sapiens) (UniProt A6NND4)
T4 sequence (whole entry): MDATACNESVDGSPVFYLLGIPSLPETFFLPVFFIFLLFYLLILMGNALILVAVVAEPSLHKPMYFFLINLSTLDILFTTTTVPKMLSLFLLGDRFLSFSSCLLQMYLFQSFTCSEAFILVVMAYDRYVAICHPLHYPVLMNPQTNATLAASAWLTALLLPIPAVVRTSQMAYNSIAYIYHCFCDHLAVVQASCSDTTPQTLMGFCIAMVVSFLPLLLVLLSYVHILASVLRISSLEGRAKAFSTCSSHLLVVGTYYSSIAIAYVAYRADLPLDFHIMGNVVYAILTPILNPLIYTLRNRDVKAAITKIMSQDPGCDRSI
How it was run: as §1

OR2B11 (Homo sapiens) = target: T5, OR2B11 (Homo sapiens) (UniProt Q5JQS5)
T5 sequence (whole entry): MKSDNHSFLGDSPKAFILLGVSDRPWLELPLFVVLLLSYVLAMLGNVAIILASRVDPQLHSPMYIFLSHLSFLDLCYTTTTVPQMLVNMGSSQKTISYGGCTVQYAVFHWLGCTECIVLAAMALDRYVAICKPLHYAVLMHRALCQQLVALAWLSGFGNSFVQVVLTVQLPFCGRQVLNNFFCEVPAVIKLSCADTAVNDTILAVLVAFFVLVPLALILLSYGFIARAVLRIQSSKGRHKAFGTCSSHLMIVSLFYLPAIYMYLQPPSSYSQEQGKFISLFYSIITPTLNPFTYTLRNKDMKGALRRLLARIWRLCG
How it was run: as §1

OR2B2 (Homo sapiens) = target: T6, OR2B2 (Homo sapiens) (UniProt Q9GZK3)
T6 sequence (whole entry): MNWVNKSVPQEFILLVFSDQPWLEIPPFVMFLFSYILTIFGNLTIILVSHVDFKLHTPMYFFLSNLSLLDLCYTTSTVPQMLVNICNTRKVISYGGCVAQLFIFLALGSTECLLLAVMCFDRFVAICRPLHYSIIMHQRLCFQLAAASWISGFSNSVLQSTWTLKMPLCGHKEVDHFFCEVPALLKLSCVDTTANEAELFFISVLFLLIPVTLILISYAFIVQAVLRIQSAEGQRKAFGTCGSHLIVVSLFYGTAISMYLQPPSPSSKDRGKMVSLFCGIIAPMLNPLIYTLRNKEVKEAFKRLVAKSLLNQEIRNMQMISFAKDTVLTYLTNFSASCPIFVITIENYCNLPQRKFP
How it was run: as §1

OR2B3 (Homo sapiens) = target: T7, OR2B3 (Homo sapiens) (UniProt O76000)
T7 sequence (whole entry): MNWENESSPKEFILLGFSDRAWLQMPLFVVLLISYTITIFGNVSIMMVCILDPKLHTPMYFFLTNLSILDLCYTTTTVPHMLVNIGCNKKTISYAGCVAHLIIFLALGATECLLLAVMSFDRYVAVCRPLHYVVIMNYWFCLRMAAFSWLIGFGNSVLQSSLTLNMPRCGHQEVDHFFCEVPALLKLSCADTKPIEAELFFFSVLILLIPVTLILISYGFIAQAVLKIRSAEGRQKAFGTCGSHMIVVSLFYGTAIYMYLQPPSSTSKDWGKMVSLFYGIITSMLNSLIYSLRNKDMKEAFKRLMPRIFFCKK
How it was run: as §1

Measured: odorant receptor agonist call;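 also: active if original authors judged signal statistically different from baseline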

O=C1CCCCCCCCCCCC(=O)OCCO1
inactive: all assays above

CCCCCOC(C)=O
active: OR2B3 (Homo sapiens)
inactive: all other assays above

CCCCCCOC(=O)CCC
inactive: all assays above

CC12C=CCC1C1CCC3=CC(=O)CCC3(C)C1CC2 (centres undefined)
inactive: all assays above

CC(=O)OC1CC2CCC1(C)C2(C)C (centres undefined)
inactive: all assays above

c1cnccn1
inactive: all assays above

An excerpt from above in order of length of the SMILES, high to low.
CC12C=CCC1C1CCC3=CC(=O)CCC3(C)C1CC2 (centres undefined)
inactive: all assays above

CC(=O)OC1CC2CCC1(C)C2(C)C (centres undefined)
inactive: all assays above

CCCCCOC(C)=O
active: OR2B3 (Homo sapiens)
inactive: all other assays above

The list continues.

C=CCSCC=C
inactive: all assays above

COc1ccccc1O
inactive: all assays above

c1ccc(Oc2ccccc2)cc1
inactive: all assays above

O=C1CCCCCCCCCCCCCCO1
inactive: all assays above

CCCCCCCCOC(C)=O
inactive: all assays above

CC(C)C(=O)O
inactive: all assays above
